Laboratory results reported in PubChem BioAssay AID540276 (National Center for Advancing Translational Sciences (NCATS), 2011).
About 5,400 (1.8%) of roughly 300,000 compounds were called active. This list was built around the results that the source calls inconclusive (neither active nor inactive); the mix of calls is not that of the screen. Calls follow the shape of the full dose curve; tested in HEK293 cells. Where the call is inconclusive, the potency comes from a doubtful curve fit.

Test: qHTS for inhibitors of binding or entry into cells for Marburg Virus
Conditions: Marburg virus pseudotyped entry inhibition, cell reporter; activity change, negative = inhibition: at 37.8 µM (top of the series) unless noted
% is scaled to controls: 0 for no effect and ±100 for the full control effect; potency is read from the fitted curve at half-maximal effect.

SMILES | activity change, negative = inhibition | Potency
N#C/C(=C(/O)COC(=O)CSc1ccc(Cl)cc1)c1nc2ccccc2[nH]1 | inactive: -13.2% | –
CC1CC(OC(=O)c2ccccc2C(=O)c2ccc(Cl)cc2)C(=O)O1 (configuration not stated) | – | inconclusive: 35.5 µM [inhibitor, single point]
COc1ccc(NC(=O)CSc2nc(-c3ccc(OC)cc3)[nH]c2-c2ccc(OC)cc2)cc1 | – | inconclusive: 35.5 µM [activator, single point]
COC(=O)c1ccccc1NC(=O)Cc1nc(-c2ccccc2)sc1-c1ccc(C)cc1 | inactive: -14.4% | –
CC(=O)Nc1cccc(NC(=O)CN2c3cccc4cccc(c34)S2(=O)=O)c1 | inactive: -18.9% | –
O=c1cc(N2CCN(c3ccccc3)CC2)[nH]c(=O)n1C1CCCCC1 | inactive: 4.01% | –
Cc1ccc(C(=O)n2c(-c3ccccc3)cnc2SCC(=O)Nc2ccccc2)cc1 | – | inconclusive: 5.62 µM [activator, single point]
N=c1c2c(n(Cc3ccc([N+](=O)[O-])cc3)c3c1CCC3)CCCC2 | – | inconclusive: 12.6 µM [inhibitor, partial curve, poor fit]
CN1Cc2c(N3CCOCC3)nc(SCc3ccccc3)c(C#N)c2CC1(C)C | – | inconclusive: 16.4 µM [inhibitor, partial curve, poor fit]
Cc1ccc(S(=O)(=O)N2CCN(C(=O)N3CCOCC3)C2C(C)C)cc1 (configuration not stated) | inactive: 1.56% | –
CC(C)(C)NC(=O)C(c1cccs1)N(Cc1ccc(F)cc1)C(=O)c1csnn1 (configuration not stated) | – | inconclusive: 11.2 µM [inhibitor, single point]
O[C@H](CCCN1CCC(O)(c2ccc(Cl)cc2)CC1)c1ccc(F)cc1 | – | inconclusive: 29.1 µM [inhibitor, single point]
CCOC(=O)CSc1nc(Nc2ccc3c(c2)OCO3)c2ccccc2n1 | inactive: 1.72% | –
CC1=CN2C(=N)/C(=C/c3ccc(Sc4ccc(Cl)cc4)o3)C(=O)N=C2S1 | inactive: 0.203% | –
CCc1ccc(C2NC(=S)NC3=C2C(=O)CCC3)cc1 (configuration not stated) | – | inconclusive: 3.16 µM [activator, partial curve, poor fit]
CCOC(=O)CNC(=O)c1ccccc1Br | – | inconclusive: 5.62 µM [activator, single point]
S=c1[nH]nc(C2CCCCC2)n1/N=C/C(Cl)=C\c1ccccc1 | – | inconclusive: 3.55 µM [inhibitor, partial curve, poor fit]
Cc1cc(CN2CCCC(CO)(Cc3cccc(Cl)c3)C2)n[nH]1 (configuration not stated) | – | inconclusive: 35.5 µM [inhibitor, single point]
COc1ccc(S(=O)(=O)N(C)CC(=O)N2CCN(c3ccc(F)cc3)CC2)cc1OC | inactive: 4.43% | –
CC(C)(C)OC(=O)NCCCC1=CC2=CC(=O)C(C)(OC(=O)c3cccs3)C(=O)C2=CO1 (configuration not stated) | – | inactive
O=C(Nc1ccc(NC(=O)C2CCCCC2)cn1)c1ccco1 | – | inconclusive: 8.91 µM [inhibitor, partial curve, poor fit]

SMILES | activity change, negative = inhibition | Potency
NC(=O)c1ccc(C(F)(F)F)n(Cc2ccc(Cl)cc2)c1=O | – | inconclusive: 23.1 µM [inhibitor, single point]
CCOc1ncccc1C(=O)Oc1ccc2c(c1)OCO2 | inactive: 0.443% [at 46.1 µM] | –
COc1cc(/C=N/Nc2cccc(C)c2)ccc1OC(=O)c1cccs1 | – | inconclusive: 1.58 µM [activator, full curve, poor fit]
CCOC(=O)C1CCN(C(=O)COC(=O)c2oc3ccccc3c2C)CC1 | – | inconclusive: 0.112 µM [inhibitor, full curve, poor fit]
O=C(CCl)c1cc2c3c(c1)CC(=O)N3CCC2 | – | inconclusive: 5.62 µM [activator, single point]
COc1cc(/C=N\NC(=O)c2ccc(C)nc2)ccc1OC(=O)c1ccco1 | – | inconclusive: 29.1 µM [activator, partial curve, poor fit]
Cc1n[nH]c(=S)n1-c1ccccc1 | – | inconclusive: 3.16 µM [activator, single point]
CCOC(=O)Nc1nc(C)c(C(=O)N(C)C)s1 | – | inconclusive: 29.1 µM [activator, partial curve, poor fit]
S=c1nc(NCCc2ccccc2Cl)c2ccccc2[nH]1 | – | inconclusive: 5.62 µM [activator, single point]
NC(=S)N=Nc1c(O)n(CCCl)c2ccccc12 | inactive: -16.4% [at 46.1 µM] | –
CN(C)S(=O)(=O)c1cccc(NC(=O)c2cc(-c3cccs3)nn2-c2cccc(Cl)c2)c1 | – | inconclusive: 14.1 µM [inhibitor, partial curve, poor fit]
CCOC(=O)N1CCC(N2C(=O)c3ccccc3C2Nc2cc(Cl)c(OC)cc2OC)CC1 (configuration not stated) | – | inactive
CN1C(=O)CSC1=Nc1ccc(F)cc1 | – | inconclusive: 2.51 µM [activator, partial curve, poor fit]
O=C(NCc1ccco1)c1cccc(-c2nnc(-c3ccccc3)o2)c1 | – | inconclusive: 2.24 µM [inhibitor, full curve]
CC(C)(C)n1ncc2c(=O)n(Cc3ccc(Cl)cc3Cl)cnc21 | – | inconclusive: 22.4 µM [inhibitor, partial curve, poor fit]
COC(=O)c1[nH]c2ccc(Br)cc2c1NC(=O)C(C)N1CCN(C2CCCCC2)CC1 (configuration not stated) | – | inconclusive: 12.6 µM [inhibitor, partial curve, poor fit]
COc1ccc(-c2nc3ccccc3s2)cc1NC(=O)COc1ccc(C)cc1 | – | inconclusive: 10 µM [activator, partial curve, poor fit]
CC1=NN(C(=O)COc2ccccc2)C(O)(c2ccccc2)C1 (configuration not stated) | – | inconclusive: 6.31 µM [activator, single point]
CS(=O)(=O)N1CCN(C(=O)c2cc(-c3cccnc3)nc3ccc(Br)cc23)CC1 | – | inconclusive: 2.82 µM [activator, partial curve]
CC(C)Cn1cc(C(=O)NCCCN2CCCC2=O)c2c3ccccc3n(C)c2c1=O | – | inconclusive: 4.11 µM [inhibitor, partial curve, poor fit]
CCCCn1c(N)c(N(CC(C)C)C(=O)c2oc3ccc(OC)cc3c2C)c(=O)[nH]c1=O | inconclusive: 3.08% [activator] | –

Rewritten as a markdown table: 2 of the compounds above

| SMILES | activity change, negative = inhibition | Potency |
| --- | --- | --- |
| CN1C(=O)CSC1=Nc1ccc(F)cc1 | – | inconclusive: 2.51 µM [activator, partial curve, poor fit] |
| O=C(NCc1ccco1)c1cccc(-c2nnc(-c3ccccc3)o2)c1 | – | inconclusive: 2.24 µM [inhibitor, full curve] |
